Assays:
STZ-diabetic rats = assay: Body weight, glycemic control and albuminuria in STZ-induced diabetic rats given LR-90 in drinking water for 32 weeks; type: in vivo, rat
Description: Animal studies were carried out in compliance with policies outlined in “The Guide for the care and Handling of Laboratory Animals” (NIH Publication No. 85-23), which have been approved by the City of Hope National Medical Center Animal Care Committee. Induction of diabetes by STZ and all other procedures were according to the previously published article on LR-90 (25), except that in the present study the diabetic rats under treatment were randomized in 5 groups of ten each: one diabetic control group (0 mg/L), one group receiving 2.5 mg/L, one group receiving 10 mg/L, a third group receiving 20 mg/L and a fourth group receiving 50 mg/L of LR-90 in drinking water (FIG. 1). Both plasma glucose and body weight were checked before administration of the drug, and no differences were detected among the two non-diabetic groups and five diabetic treatment groups. All animals were housed individually and were given free access to food (Purina rodent chow 5001, Ralston Purina, Richmond, Ind., USA) and water. Glycemic control and body weights were monitored periodically. In order to limit hyperglycemia and ensure that animals maintained body weight, diabetic animals received 3 IU of ultralente insulin (Humulin U, Eli Lilly, Indianapolis, Ind., USA) two to three times per week. The study was carried out over 32 weeks.
Blood (from the tail vein) and urine samples were collected from rats for glycemic control analysis and albuminuria measurements. Plasma glucose was measured using a glucose analyzer machine (YSI 2300 STAT, Yellowsprings, Ohio, USA). HbAlc concentration was measured by HPLC (BioRad DIAMAT, Hercules, Calif., USA). Total plasma triglycerides and cholesterol concentrations were quantified at the end of the study using the Vitros 250 Chemistry System (Johnson & Johnson, Rochester, N.Y., USA). Progression of renal dysfunction was assessed by measuring urinary albumin-to-creatinine ratio (ACR). Rats were housed in metabolic cages (Nalge, Rochester, N.Y., USA) for 24 hr and urine was collected in a collection beaker with several drops of toluene to inhibit microbial growth. Urinary albumin and creatinine concentrations were quantified immunologically using the Nephrat/Creatinine Companion kits (Exocell), and the ACR value was calculated for each rat.
At the end of study, the rats were weighed and anaesthetized with isofluorane and blood was drawn by heart puncture and transferred into heparinized and non-heparinized vacutainer tubes on ice. These blood samples were later centifuged for plasma and serum collection respectively, and stored at −70° C. until the time of analysis. Rats were killed by over-anesthetization and cardiac puncture and the kidneys were removed immediately, weighed, decapsulated and rinsed in PBS buffer. Sections of the kidneys were stored in 10% NBF for subsequent microscopic examinations and immunohistochemistry.
Statistical analyses were performed using Prism software (GraphPad, San Diego, Calif., USA). Unless otherwise indicated, data are presented as Means±Std. Group comparisons were analyzed using one-way ANOVA and subsequent post-hoc analysis by Tukey's test. A P value of less than 0.05 was considered statistically significant.

non-diabetic rats = assay: Non-diabetic control rats given LR-90 in drinking water for 32 weeks; type: in vivo, rat
Description: Animal studies were carried out in compliance with policies outlined in “The Guide for the care and Handling of Laboratory Animals” (NIH Publication No. 85-23), which have been approved by the City of Hope National Medical Center Animal Care Committee. Induction of diabetes by STZ and all other procedures were according to the previously published article on LR-90 (25), except that in the present study the diabetic rats under treatment were randomized in 5 groups of ten each: one diabetic control group (0 mg/L), one group receiving 2.5 mg/L, one group receiving 10 mg/L, a third group receiving 20 mg/L and a fourth group receiving 50 mg/L of LR-90 in drinking water (FIG. 1). Both plasma glucose and body weight were checked before administration of the drug, and no differences were detected among the two non-diabetic groups and five diabetic treatment groups. […] Glycemic control and body weights were monitored periodically. […]
Blood (from the tail vein) and urine samples were collected from rats for glycemic control analysis and albuminuria measurements. Plasma glucose was measured using a glucose analyzer machine (YSI 2300 STAT, Yellowsprings, Ohio, USA). HbAlc concentration was measured by HPLC (BioRad DIAMAT, Hercules, Calif., USA). […] Progression of renal dysfunction was assessed by measuring urinary albumin-to-creatinine ratio (ACR). […]

[1] = difference not statistically significant

## CC(C)(Oc1ccc(NC(=O)Nc2ccc(Cc3ccc(NC(=O)Nc4ccc(OC(C)(C)C(=O)O)cc4)c(Cl)c3)cc2Cl)cc1)C(=O)O [LR-90]
STZ-diabetic rats; 2.5 mg per liter drinking water daily
  Body wt.: 305.8 ± 52.1 g
STZ-diabetic rats; 10 mg per liter drinking water daily
  Body wt.: 306.8 ± 71.4 g
STZ-diabetic rats; 25 mg per liter drinking water daily
  Body wt.: 312.0 ± 71.9 g
STZ-diabetic rats; 50 mg per liter drinking water daily
  Body wt.: 326.4 ± 62.3 g
STZ-diabetic rats; [1]
  body weight compared with untreated counterparts: slight increase in weight
non-diabetic rats; 50 mg per liter drinking water daily, 32 weeks
  Body wt.: 698.5 ± 93.4 g
non-diabetic rats; [1]
  body weight compared with untreated counterparts: slight increase in weight
